The values below come from paper PMC12708788.

The chains behind the UniProt entries cited, without tags or fusion partners. Where a name states a change or a piece, a line headed by the entry shows the natural chain unless it says otherwise.
UniProt P61073: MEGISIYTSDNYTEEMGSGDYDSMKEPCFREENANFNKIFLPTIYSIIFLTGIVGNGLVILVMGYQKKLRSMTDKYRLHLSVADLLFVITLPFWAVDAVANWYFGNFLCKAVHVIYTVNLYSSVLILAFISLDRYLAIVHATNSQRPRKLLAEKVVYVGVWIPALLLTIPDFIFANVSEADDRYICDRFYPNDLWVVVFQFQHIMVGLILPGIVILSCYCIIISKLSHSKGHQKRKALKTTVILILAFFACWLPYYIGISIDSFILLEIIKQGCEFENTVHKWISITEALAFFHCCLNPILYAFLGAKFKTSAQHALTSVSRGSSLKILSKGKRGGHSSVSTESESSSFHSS
UniProt P25106: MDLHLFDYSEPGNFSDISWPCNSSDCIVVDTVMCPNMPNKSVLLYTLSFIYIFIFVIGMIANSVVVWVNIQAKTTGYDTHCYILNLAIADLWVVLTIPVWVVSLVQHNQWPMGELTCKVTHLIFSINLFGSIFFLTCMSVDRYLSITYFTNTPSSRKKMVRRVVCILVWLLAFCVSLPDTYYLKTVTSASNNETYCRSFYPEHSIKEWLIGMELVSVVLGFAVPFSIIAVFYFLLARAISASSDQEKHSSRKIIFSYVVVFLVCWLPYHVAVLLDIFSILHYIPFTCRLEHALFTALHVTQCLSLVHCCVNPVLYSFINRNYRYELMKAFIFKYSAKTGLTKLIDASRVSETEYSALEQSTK

These are yes or no findings as the source states them, for the method shown. Binding seen in cells or lysates may run through a third protein. A result given as binding can be weak or reduced; the word gives no strength.

The target of assay [1] is Halo-CXCR4 (UniProt P61073). Description: FRET or BRET; TR-FRET between labelled nanobodies on cells co-expressing CXCR4 and ACKR3 receptors, 96-well plate format (Fig. S12).
Assay [2] has as its target Halo-CXCR4 (UniProt P61073). Description: FRET or BRET; TR-FRET microscopy between 10 nM Lumi4-Tb- and d2-labelled nanobodies bound to receptors on transfected HEK293T cells, 37 °C.

“SNAP-ACKR3-ΔCterm (from UniProt P25106) (receptor)”: the binding entry with Halo-CXCR4 [1] and with Halo-CXCR4 [2] was “binds” throughout.
